Test results as given in publication PMC10279885.
No constants are given. Whether binding was seen depends on the method and setting. In cells and extracts the contact can be indirect. A result given as binding can be weak or reduced; the word gives no strength. For some assays here: Where a sequence is shown, tags or fusion partners need not be part of it.

What was measured:
[1] = target: T1, NAI2 (full length), expressed as NAI2:NV and as NAI2:CV for BiFC (Arabidopsis thaliana) (UniProt Q9LSB4); experiment: split reporter; BiFC with NV and CV fragments of Venus in N. benthamiana leaves, confocal microscopy 5 d after agro-infiltration
T1 sequence: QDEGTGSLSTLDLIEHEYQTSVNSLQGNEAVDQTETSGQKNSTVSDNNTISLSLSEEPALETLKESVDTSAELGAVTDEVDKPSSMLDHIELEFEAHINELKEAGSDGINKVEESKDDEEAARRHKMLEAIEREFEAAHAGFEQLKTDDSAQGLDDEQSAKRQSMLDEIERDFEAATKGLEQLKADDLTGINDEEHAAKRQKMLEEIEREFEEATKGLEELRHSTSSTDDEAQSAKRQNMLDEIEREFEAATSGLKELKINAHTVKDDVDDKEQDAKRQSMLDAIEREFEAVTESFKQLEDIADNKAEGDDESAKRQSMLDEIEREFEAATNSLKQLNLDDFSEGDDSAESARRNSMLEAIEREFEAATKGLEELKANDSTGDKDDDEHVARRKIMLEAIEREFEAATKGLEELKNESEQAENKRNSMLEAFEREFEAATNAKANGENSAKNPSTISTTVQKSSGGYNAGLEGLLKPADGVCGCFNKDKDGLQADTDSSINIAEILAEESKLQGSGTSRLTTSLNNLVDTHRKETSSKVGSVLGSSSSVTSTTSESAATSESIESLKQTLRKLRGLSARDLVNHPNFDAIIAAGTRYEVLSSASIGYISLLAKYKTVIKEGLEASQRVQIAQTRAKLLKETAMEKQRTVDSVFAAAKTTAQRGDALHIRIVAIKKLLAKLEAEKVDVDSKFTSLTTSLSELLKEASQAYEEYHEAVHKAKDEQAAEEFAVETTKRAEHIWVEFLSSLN

[2] = target: T2, NAI2 (wild type), expressed as NAI2:HA and as NAI2:GFP (Arabidopsis thaliana) (UniProt Q9LSB4); experiment: co-IP; N. benthamiana leaf extracts 5 d after agro-infiltration; IP buffer 50 mM Tris-HCl pH 7.5, 150 mM NaCl, 0.1% Triton X-100; anti-GFP antibody overnight at 4 °C, protein-A beads; western blot with anti-HA and anti-GFP
T2 sequence: T1 sequence

Row | Substance | binding [1] | binding [2]
1 | CV alone (C-terminal fragment of Venus fluorescent protein) (domain or fragment) | no binding | 
2 | NAI2ΔED:CV (from UniProt Q9LSB4) | binds | 
3 | NAI2ΔND:HA (Arabidopsis thaliana) (domain or fragment) |  | no binding

The next lines start with the values.

Row | binding [1] | binding [2] | Substance
4 |  | binds | NAI2ΔED:HA (from UniProt Q9LSB4)
5 | binds weakly |  | NAI2ΔND:CV (Arabidopsis thaliana) (domain or fragment)
